Measurements as given in PubChem BioAssay AID504842 (National Center for Advancing Translational Sciences (NCATS), 2011).
In all, about 330,000 compounds went through this assay and about 100 (0.03%) were called active. This list was built around the results that the source calls inconclusive (neither active nor inactive); the mix of calls is not that of the screen. Calls follow the shape of the dose curve; as a rule, active = well fitted inhibition curve with a large enough effect; inconclusive = small, poorly fitted or top-dose-only effect; inactive = flat fitted curve, though single readings scatter. Where the call is inconclusive, the potency comes from a doubtful curve fit.
% is scaled to controls: 0 for no effect and ±100 for the full control effect; potency is read from the fitted curve at half-maximal effect.
Also: nearly all actives have a fitted effect of over 80% in size.
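For potency in this document: enzyme at 25 nM with ATP substrate at 10 µM during the reaction.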

The compounds below were run on Chaperonin Mm-Cpn (Methanococcus maripaludis) (assay: Inhibitors of TCP-1 ring complex (TRiC) of Methanococcus maripaludis (MmCpn): qHTS). Conditions: purified Mm-Cpn ATPase, ADP Transcreener TR-FRET; activity, negative = inhibition: at the top concentration.
How it was run: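 ATP (10 uM final) was added to archaeal chaperonin (25 nM final) after 10 min exposure to test compound at 37°C; after 30 min further incubation, ADP was detected by competitive TR-FRET.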
CCC1(c2ccc(Cl)cc2)NC(=S)N(c2ccc(C)cc2)N1 (configuration not stated) was tested, and the “activity, negative = inhibition” value was inactive: -9.19%. In the case of CC1CCCCC1NCC(=O)Nc1ccccc1-c1ccccc1 (configuration not stated), the “activity, negative = inhibition” value is reported as inactive: -0.401%. For N#CCCn1c(SCC(=O)N2CCN(S(=O)(=O)c3ccccc3)CC2)nc2ccccc21, the Potency was inconclusive: 22.4 µM [inhibitor, single point]. In the case of Nc1nn(-c2ccccc2)nc1C(=O)OCc1ccccc1F, the Potency is reported as inconclusive: 22.4 µM [inhibitor, single point]. COc1ccc(N(CC(=O)N2CCN(c3ccccc3F)CC2)S(=O)(=O)c2ccc(C)cc2)cc1 was tested, and the Potency was inconclusive: 22.4 µM [inhibitor, single point]. With COc1ccc(/C=C/C(=O)Oc2cccc(/C=N/NC(=O)COc3c(C)cccc3C)c2)cc1 the Potency was inconclusive: 28.2 µM [inhibitor, partial curve, poor fit]. With O=C(NNC(=S)NC(=O)c1cccc([N+](=O)[O-])c1)c1ccc(O)cc1 the “activity, negative = inhibition” value was inactive: -5.45%. In the case of O=C(CSc1nc2ccc(NC(=O)CSc3nnnn3-c3ccccc3)cc2s1)Nc1ccccc1, the Potency is reported as inconclusive: 282 µM [inhibitor, partial curve, poor fit]. In the case of O=C(NCC1CCCO1)c1ccc(COc2ccccc2)cc1 (configuration not stated), the “activity, negative = inhibition” value is reported as inactive: 0.745%. With O=C(c1ccc(F)cc1)N1CCN2C(=O)c3ccccc3C12c1ccccc1 (configuration not stated) the Potency was inconclusive: 15.8 µM [inhibitor, single point]. With CCOC(=O)c1c(C)[nH]c(C(=O)CN2C(=O)NC3(CCCC3)C2=O)c1C the “activity, negative = inhibition” value was inactive: -5.63%. CCC(=O)Nc1cccc(-n2nnnc2SCC(=O)c2ccc(C)c(C)c2)c1 was tested, and the Potency was inconclusive: 224 µM [inhibitor, partial curve, poor fit]. With O=C(Nc1ccc(-c2nc3ccccc3s2)cc1)C1=COCCO1 the Potency was inconclusive: 79.4 µM [inhibitor, single point]. In the case of O=C(COc1ccc(F)cc1)Nc1nnc(-c2ccncc2)s1, the “activity, negative = inhibition” value is reported as inactive: -6.87%. With COc1cccc(OC)c1C(=O)Nc1nc(-c2ccccc2)cs1 the Potency was inconclusive: 100 µM [inhibitor, single point]. With Cc1c(C)c2ccc(OCC(=O)NCCN3CCOCC3)cc2oc1=O the Potency was inconclusive: 100 µM [inhibitor, single point]. With C=CCn1cc(C(=O)NCc2ccco2)c(=O)c2cc(S(=O)(=O)N3CCCCCC3)ccc21 the Potency was inconclusive: 15.8 µM [inhibitor, single point]. With O=C(Cn1nnc2ccccc21)Nc1ccc([N+](=O)[O-])cc1 the Potency was inconclusive: 22.4 µM [inhibitor, single point]. For Cc1nc2c(C(=O)N3CCN(C)CC3)cnn2c(C)c1Cc1ccc(Cl)cc1, the Potency was inconclusive: 100 µM [inhibitor, single point]. Cn1cnc(C(=O)N2CCc3ccccc3C2)c1C(=O)N1CCc2ccccc2C1 was tested, and the “activity, negative = inhibition” value was inactive: 1.5%. With CCCOc1ccc(C2C(C(=O)c3cc4ccccc4o3)=C(O)C(=O)N2c2cc(C)on2)cc1OC (configuration not stated) the Potency was inconclusive: 501 µM [inhibitor, partial curve, poor fit]. With CC(=O)N1CC(=O)N=C1SCC(=O)Nc1nc(-c2ccccc2)c(-c2ccccc2)s1 the Potency was inconclusive: 112 µM [inhibitor, partial curve, poor fit]. In the case of CCCCOc1ccc(NC(=O)Cn2c(=O)ccc3c(C)cc(C)nc32)cc1, the Potency is reported as inconclusive: 100 µM [inhibitor, single point]. For CNc1oc(-c2cccs2)nc1S(=O)(=O)c1ccccc1, the “activity, negative = inhibition” value was inactive: -1.17%. Cc1ccc(-c2csc3ncnc(SCC(=O)NCC4CCCO4)c23)cc1 (configuration not stated) was tested, and the Potency was inconclusive: 100 µM [inhibitor, single point]. With O=C1CN(C(=O)CNC(=O)c2cccc(Cl)c2)c2ccccc2N1 the Potency was inconclusive: 70.8 µM [inhibitor, single point]. In the case of CCNc1nc(C)cc(COC)c1C#N, the “activity, negative = inhibition” value is reported as inactive: -0.466%. With CC(NC(=O)COC(=O)Cc1ccccc1[N+](=O)[O-])c1ccccc1 (configuration not stated) the Potency was inconclusive: 15.8 µM [inhibitor, single point]. CCCC(=O)Nc1nc(C)c(-c2csc(Nc3cc(OC)ccc3OC)n2)s1 was tested, and the Potency was inconclusive: 100 µM [inhibitor, partial curve, poor fit]. In the case of O=c1c(Cl)c(NS(=O)(=O)c2ccccc2)cnn1-c1ccccc1, the Potency is reported as inconclusive: 447 µM [inhibitor, partial curve, poor fit]. In the case of CC(C)C[C@H](NC(=O)c1[nH]cnc1C(=O)N[C@@H](Cc1ccccc1)C(=O)OC(C)(C)C)C(=O)OC(C)(C)C, the “activity, negative = inhibition” value is reported as inactive: 1.13%. In the case of Cc1ccc2c(C(=O)CN3CCCC(C)C3)c(C)[nH]c2c1 (configuration not stated), the Potency is reported as inconclusive: 20 µM [inhibitor, single point]. For Cc1cc(NCCCn2ccnc2)n2nc(C)c(-c3ccccc3)c2n1, the Potency was inconclusive: 100 µM [inhibitor, partial curve, poor fit]. In the case of COc1cccc(NC(=S)NN=C2CCC(C(C)(C)C)CC2)c1 (configuration not stated), the Potency is reported as inconclusive: 44.7 µM [inhibitor, single point]. CCN1CCN(Cc2c(O)ccc3c2O/C(=C\c2ccc(C)cc2)C3=O)CC1 was tested, and the “activity, negative = inhibition” value was inactive: -11.1%. With O=C(CN1C(=O)NC2(CCCCC2)C1=O)Oc1ccc2c(C(F)(F)F)cc(=O)oc2c1 the Potency was inconclusive: 20 µM [inhibitor, single point]. With Cc1cc2cc(CNS(=O)(=O)c3ccc4ccccc4c3)ccc2n1C the Potency was inconclusive: 35.5 µM [inhibitor, partial curve, poor fit]. O=C(C1CCN(S(=O)(=O)c2cccc3nsnc23)CC1)N1CCn2c1nc1ccccc12 was tested, and the “activity, negative = inhibition” value was inactive: 0.055%. In the case of CCc1ccc(NC(=O)c2sc3nc4n(c(=O)c3c2C)CCC4)cc1, the “activity, negative = inhibition” value is reported as inactive: -0.999%. In the case of COc1ccccc1CN1C(=O)c2cccc3cccc(c23)C1=O, the “activity, negative = inhibition” value is reported as inactive: -0.635%. For O=S(=O)(c1cccc(-c2csc(-c3ccccc3)n2)c1)N1CCOCC1, the Potency was inconclusive: 79.4 µM [inhibitor, single point]. COc1cccc(NC(=O)Cn2cc(C(=O)c3ccc(C)cc3)c(=O)c3cc(OC)ccc32)c1 was tested, and the Potency was inconclusive: 100 µM [inhibitor, partial curve, poor fit]. For COc1ccc(C2=NN(C(=O)CSc3nc4ncc(Cl)cc4[nH]3)C(c3ccco3)C2)cc1 (configuration not stated), the Potency was inconclusive: 70.8 µM [inhibitor, single point]. O=C(CCc1ccccc1)NC(NC(=S)Nc1cccc(Cl)c1)C(Cl)(Cl)Cl (configuration not stated) was tested, and the Potency was inconclusive: 25.1 µM [inhibitor, single point]. With Cn1cc(CNC(=O)C2CCC(=O)N(Cc3cccc(C(F)(F)F)c3)C2)cn1 (configuration not stated) the Potency was inconclusive: 10 µM [inhibitor, single point]. In the case of CCCC1NC(C(=O)O)Cc2c1[nH]c1ccccc21 (configuration not stated), the Potency is reported as inconclusive: 89.1 µM [inhibitor, single point]. In the case of COc1cc2nc(SCc3ccc(Cl)cc3Cl)n(Cc3cccs3)c(=N)c2cc1OC, the Potency is reported as inconclusive: 100 µM [inhibitor, partial curve, poor fit]. CCOC(=O)Nc1nc(-c2ccccc2)c(C(=O)c2ccccc2)s1 was tested, and the Potency was inconclusive: 100 µM [inhibitor, partial curve, poor fit]. With O=C(CN1C(=O)c2ccc(Br)cc2C1=O)NCC1CCCO1 (configuration not stated) the “activity, negative = inhibition” value was inactive: 0.0166%. In the case of COc1cccc(N=Nc2ccc(O)c3ncccc23)c1, the Potency is reported as inconclusive: 10 µM [inhibitor, single point]. For COc1ccc(CC(=O)NCC(c2ccc(OC)cc2)N(C)C)cc1 (configuration not stated), the Potency was inconclusive: 7.08 µM [inhibitor, single point]. With Cc1ccc(S(=O)(=O)NCC2CCC(C(=O)NCCCOC(C)C)CC2)cc1 (configuration not stated) the Potency was inconclusive: 100 µM [inhibitor, single point]. O=C(CSCc1ccccc1)N/N=C/c1cc2c(cc1Br)OCO2 was tested, and the Potency was inconclusive: 100 µM [inhibitor, single point]. In the case of O=C(Nc1nc2c(s1)CCCC2)c1cccc(S(=O)(=O)N2CCCc3ccccc32)c1, the Potency is reported as inconclusive: 100 µM [inhibitor, partial curve, poor fit]. O=C(O)COc1ccc(-c2nc(-c3ccccc3)c(-c3ccccc3)[nH]2)cc1 was tested, and the “activity, negative = inhibition” value was inactive: -8.7%. In the case of O=CNC(n1cnc2c(N3CCOCC3)ncnc21)C(Cl)(Cl)Cl (configuration not stated), the Potency is reported as inconclusive: 10 µM [inhibitor, single point]. In the case of Cc1ccccc1N1C(=O)c2sc3nc4c(c(=O)n3c2C1=O)CCC4, the “activity, negative = inhibition” value is reported as inactive: -2.97%. For Cc1ccc(CC(=O)NCCS(=O)c2ccc(C)cc2)cc1 (configuration not stated), the Potency was inconclusive: 447 µM [inhibitor, partial curve, poor fit]. COc1ccc(C(=O)c2c(-c3cccc(C)c3)oc3ccc(N4CCOCC4)cc23)cn1 was tested, and the Potency was inconclusive: 79.4 µM [inhibitor, partial curve, poor fit]. With COc1cccc(C(=O)Nc2nnc(S(=O)(=O)N3CCCC3)s2)c1 the Potency was inconclusive: 79.4 µM [inhibitor, single point]. In the case of O=c1ccccn1Cc1c(F)cccc1Cl, the Potency is reported as inconclusive: 56.2 µM [inhibitor, single point]. With CSc1cccc(NC(=O)CCS(=O)(=O)c2cccc3nonc23)c1 the Potency was inconclusive: 100 µM [inhibitor, single point]. For COc1ccc2c(c1)CCc1c(C(=O)Nc3c(C)nn(Cc4ccccc4)c3C)noc1-2, the “activity, negative = inhibition” value was inactive: -0.423%. For COc1ccc(CNC(=O)CC2C(=O)NCCN2CC(C)(C)C)c(OC)c1 (configuration not stated), the Potency was inconclusive: 17.8 µM [inhibitor, single point]. In the case of CN(C)S(=O)(=O)Oc1ccsc1C(=O)Nc1cccc(Cl)c1Cl, the “activity, negative = inhibition” value is reported as inactive: 0.457%. With O=C(O)c1ncc(Cl)c(Cl)c1Cl the Potency was “inactive”. COc1ccc(C(=O)NCCS(=O)(=O)N2CCc3ccccc3C2)cc1 was tested, and the Potency was inconclusive: 22.4 µM [inhibitor, single point].
